In doi:10.1101/583179 one finds binding data, which are given here for one substance.

Chains of the proteins cited; added tags and fusions are not shown. Residues count along the entry.
UniProt P12956: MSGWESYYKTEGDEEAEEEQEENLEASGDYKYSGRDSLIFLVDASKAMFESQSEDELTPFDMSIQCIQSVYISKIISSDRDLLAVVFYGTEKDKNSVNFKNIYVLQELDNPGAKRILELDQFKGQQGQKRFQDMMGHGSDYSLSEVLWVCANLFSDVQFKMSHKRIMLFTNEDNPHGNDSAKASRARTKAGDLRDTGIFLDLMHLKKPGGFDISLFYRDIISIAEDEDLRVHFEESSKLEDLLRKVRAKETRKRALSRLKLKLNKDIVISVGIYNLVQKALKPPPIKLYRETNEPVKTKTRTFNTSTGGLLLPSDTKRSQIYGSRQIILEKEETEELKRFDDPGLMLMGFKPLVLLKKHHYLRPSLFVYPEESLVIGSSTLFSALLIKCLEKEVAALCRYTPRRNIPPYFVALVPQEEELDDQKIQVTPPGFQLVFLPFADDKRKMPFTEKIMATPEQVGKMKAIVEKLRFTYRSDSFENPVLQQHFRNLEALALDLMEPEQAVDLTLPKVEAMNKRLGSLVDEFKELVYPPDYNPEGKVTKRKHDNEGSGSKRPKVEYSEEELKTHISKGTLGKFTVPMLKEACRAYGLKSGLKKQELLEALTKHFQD
UniProt P02545, residues 1-646: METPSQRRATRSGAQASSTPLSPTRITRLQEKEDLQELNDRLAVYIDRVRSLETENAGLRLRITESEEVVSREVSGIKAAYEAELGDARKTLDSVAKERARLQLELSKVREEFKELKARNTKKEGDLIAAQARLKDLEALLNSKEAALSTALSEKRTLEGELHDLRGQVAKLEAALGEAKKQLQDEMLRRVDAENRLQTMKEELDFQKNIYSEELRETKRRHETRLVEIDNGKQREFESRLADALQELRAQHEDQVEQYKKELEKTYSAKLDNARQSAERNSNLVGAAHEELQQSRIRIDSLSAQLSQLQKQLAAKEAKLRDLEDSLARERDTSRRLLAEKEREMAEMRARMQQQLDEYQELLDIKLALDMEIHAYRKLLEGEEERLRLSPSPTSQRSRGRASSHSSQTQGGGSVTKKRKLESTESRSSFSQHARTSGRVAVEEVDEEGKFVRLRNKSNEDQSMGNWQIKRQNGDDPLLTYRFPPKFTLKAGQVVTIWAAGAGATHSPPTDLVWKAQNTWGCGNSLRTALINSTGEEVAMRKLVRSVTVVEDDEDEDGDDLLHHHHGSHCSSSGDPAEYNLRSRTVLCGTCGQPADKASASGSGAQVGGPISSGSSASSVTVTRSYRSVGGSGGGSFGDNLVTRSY

The experiment has as its target GFP-KU70 (UniProt P12956). As to the kind of experiment: affinity purification with mass spectrometry.

No constants are given. Whether binding was seen depends on the method and setting. In cells and extracts the contact can be indirect. These calls come from enrichment with a bait or labelling near it, and not all partners need be listed.

Consider “lamin-A (LMNA) (from UniProt P02545 1-646)”, for which the binding result was “binds”.
